Drawing on PubChem BioAssay AID248 (DTP/NCI, 2004), this text covers T/C and survivor count for 23 compounds.

Molecules are shown by their SMILES. The list shows only some results of the screen, not a fair sample: it is rich in T/C values a quarter to a half above the control, in often repeated tests (any T/C) and in doses without a T/C. Further doses and runs are listed elsewhere. T/C is the treated group as % of the vehicle group. Some entries give survivors of the animals treated and no T/C: the source holds a T/C of zero for them, seemingly a mark for toxic or unscored doses. Some doses without a T/C left all or most animals alive at the check, yet need not have been tolerated: the source hardly ever lists a survival T/C far under the control, and the zero likely stands for such cases as well. Counts of survivors are from the toxicity check (mostly the fifth day) where no day follows; animals may have died later. Schedules are NCI's codes, taken here to give the interval after Q, in days (D) or hours (H), and the number of doses after X. Some doses were run more than once; the values are given in rising order. Some schedule codes hold Z or #, which are not explained here. For survival time, the PubChem record calls one and a half times the control and up active, and a quarter to a half above the control has no call in these data; cut-offs in other NCI protocols can differ. Some T/C values carry the count of animals alive at the toxicity check (mostly the fifth day); where none is given, no animal had died by that day.

The test has as its system L1210 leukemia ip in BDF1 mice, survival T/C. Nature of the test: NCI In Vivo Anticancer Drug Screen. Data for tumor model L1210 Leukemia (intraperitoneal) in B6D2F1 (BDF1) mice. Conditions: T/C endpoint: mean survival time, higher T/C = longer survival.
Where [1] appears, read: dose: 400.0 mg/kg/injection, schedule: Q04DX003 (ip), vehicle: saline with Tween-80.
[2] abbreviates: dose: 400.0 mg/kg/injection, schedule: Q01DX009 (ip), vehicle: Klucel (hydroxypropylcellulose) (HPC).
The mark [3] stands for this setting: dose: 75.0 mg/kg/injection, schedule: Q01DX001 (ip), vehicle: saline.
Setting [4] is: dose: 150.0 mg/kg/injection, schedule: Q01DX001 (ip), vehicle: saline.
The mark [5] stands for this setting: dose: 300.0 mg/kg/injection, schedule: Q01DX001 (ip), vehicle: saline.
Where [6] appears, read: dose: 200.0 mg/kg/injection, schedule: Q04DX003 (ip), vehicle: saline.
Setting [7] is: dose: 400.0 mg/kg/injection, schedule: Q04DX003 (ip), vehicle: saline.
Setting [8] is: dose: 200.0 mg/kg/injection, schedule: Q04DX002 (ip), vehicle: Klucel (hydroxypropylcellulose) (HPC).
Setting [9] is: dose: 400.0 mg/kg/injection, schedule: Q04DX002 (ip), vehicle: Klucel (hydroxypropylcellulose) (HPC).

Take `CC(=O)Nc1ccn(C2OC(COC(C)=O)C(OC(C)=O)C2OC(C)=O)c(=O)n1` (centres undefined): the T/C was 125 % of control (dose: 37.0 mg/kg/injection, schedule: Q03HX024 (ip), vehicle: other); 125 % of control (dose: 150.0 mg/kg/injection, schedule: Q01DX009 (ip), vehicle: other); 127 % of control (dose: 178.0 mg/kg/injection, schedule: Q01DX Z (ip), vehicle: carboxymethylcellulose (CMC)); 126 % of control (dose: 250.0 mg/kg/injection, schedule: Q01DX009 (oral), vehicle: carboxymethylcellulose (CMC)); 139 % of control (dose: 267.0 mg/kg/injection, schedule: Q01DX Z (ip), vehicle: carboxymethylcellulose (CMC)); 132 % of control (dose: 267.0 mg/kg/injection, schedule: Q01DX Z (ip), vehicle: saline). In addition, the T/C by setting is: (dose: 300.0 mg/kg/injection, schedule: Q01DX009 (ip), vehicle: other) 142 and 144 % of control; (dose: 400.0 mg/kg/injection, schedule: Q01DX010 (oral), vehicle: carboxymethylcellulose (CMC)) 126 % of control; (dose: 500.0 mg/kg/injection, schedule: Q01DX009 (oral), vehicle: carboxymethylcellulose (CMC)) 128 % of control; (dose: 500.0 mg/kg/injection, schedule: Q03HX024 (oral), vehicle: water) 128 % of control; (dose: 600.0 mg/kg/injection, schedule: Q04DX003 (ip), vehicle: other) 133 % of control; (dose: 800.0 mg/kg/injection, schedule: Q01DX010 (oral), vehicle: carboxymethylcellulose (CMC)) 143 % of control. In addition, the T/C by setting is: (dose: 1000.0 mg/kg/injection, schedule: Q01DX009 (oral), vehicle: carboxymethylcellulose (CMC)) 136 % of control; (dose: 2000.0 mg/kg/injection, schedule: Q01DX009 (oral), vehicle: carboxymethylcellulose (CMC)) 127 % of control [7 of 10 alive]; (dose: 2000.0 mg/kg/injection, schedule: Q03HX024 (oral), vehicle: carboxymethylcellulose (CMC)) 145 % of control. For the same compound, the survivor count reads like this: (dose: 50.0 mg/kg/injection, schedule: Q## X090 (ip), vehicle: carboxymethylcellulose (CMC)) 2 of 6; (dose: 100.0 mg/kg/injection, schedule: Q## X090 (ip), vehicle: carboxymethylcellulose (CMC)) 5 of 6; (dose: 200.0 mg/kg/injection, schedule: Q## X090 (ip), vehicle: carboxymethylcellulose (CMC)) 1 of 6; (dose: 400.0 mg/kg/injection, schedule: Q## X090 (ip), vehicle: carboxymethylcellulose (CMC)) 3 of 6; (dose: 800.0 mg/kg/injection, schedule: Q## X090 (ip), vehicle: carboxymethylcellulose (CMC)) 1 of 6; (dose: 1600.0 mg/kg/injection, schedule: Q## X090 (ip), vehicle: carboxymethylcellulose (CMC)) 4 of 6.
In the case of `CCCCCCCCCCCCCCCCc1ccc(O)cc1O`, the survivor count is 1 of 6 (dose: 150.0 mg/kg/injection, schedule: Q01DX009 (ip), vehicle: saline with Tween-80); 2 of 6 (dose: 200.0 mg/kg/injection, schedule: Q04DX003 (ip), vehicle: saline with Tween-80); 2 of 6 (dose: 225.0 mg/kg/injection, schedule: Q01DX009 (ip), vehicle: saline with Tween-80); 1 of 6 (dose: 335.0 mg/kg/injection, schedule: Q01DX009 (ip), vehicle: saline with Tween-80); 1 of 6 under setting [1].
With `O=c1[nH]c2nccnc2[nH]1`, the survivor count (dose: 100.0 mg/kg/injection, schedule: Q01DX009 (ip), vehicle: water) was 3 of 6 and the survivor count (dose: 400.0 mg/kg/injection, schedule: Q01DX009 (ip), vehicle: water) was 2 of 6.
As to `Nc1ccccc1SC1CC(=O)N(c2ccc(Br)cc2Cl)C1=O` (centres undefined), the survivor count (dose: 100.0 mg/kg/injection, schedule: Q01DX009 (ip), vehicle: Klucel (hydroxypropylcellulose) (HPC)) is on record as 3 of 6.
`CCOC(=O)CCN(CC(C)C)C(=S)Nc1ccccc1`: the survivor count (dose: 200.0 mg/kg/injection, schedule: Q01DX Z (ip), vehicle: methylcellulose (MC)) is 5 of 6.
`CC(=O)CCNC1(c2ccccc2)CCCCC1`: for the setting “dose: 400.0 mg/kg/injection, schedule: Q01DX001 (ip), vehicle: Klucel (hydroxypropylcellulose) (HPC)”, the survivor count is given as 0 of 6.
As for `CC(=O)Oc1ccccc1C(C)=O`, the survivor count under setting [2] is given as 2 of 6.
On to `O=C(Nc1ccc(S(=O)(=O)Nc2ccc(N=Nc3ccc(N=Nc4ccccc4)cc3)cc2)cc1)C(N1CC1)(N1CC1)N1CC1`, for which the survivor count reads like this: under setting [3], 1 of 6; under setting [4], 0 of 6; under setting [5], 0 of 6.
For `CCOC(=O)C(C(=O)O)C(=O)CCO` (centres undefined), the survivor count (dose: 400.0 mg/kg/injection, schedule: Q01DX001 (ip), vehicle: saline) was 3 of 3.
Take `OC(c1ccccc1)c1ccccc1` (tested in a mixture with another compound): the survivor count is 3 of 6 (dose: 40.0 mg/kg/injection, schedule: Q01DX001 (ip), vehicle: saline); 2 of 6 under setting [3]; 0 of 6 under setting [4]; 0 of 6 under setting [5].
On to `NC1C2C(CC(=O)O)OCC=C3CN4CCC1(C(=O)C(=O)O)C4CC32` (centres undefined), for which the survivor count (dose: 8.0 mg/kg/injection, schedule: Q01DX001 (ip), vehicle: saline) was 0 of 6.
Consider `C1CCN(CCC2CCNCC2)C1`, for which the survivor count reads like this: under setting [6], 3 of 6; under setting [7], 0 of 6.
As to `NNC(=O)CSSCC(=O)NN`, the survivor count is listed as 0 of 3 under setting [8] and 0 of 3 under setting [9].
As to `CC1CCCCC1=C(C#N)C#N` (centres undefined), the survivor count (dose: 80.0 mg/kg/injection, schedule: Q01DX001 (ip), vehicle: saline) was 0 of 4.
As for `CCCCCCCCCC(=O)N1CCCCC1C` (centres undefined), the T/C (dose: 100.0 mg/kg/injection, schedule: Q04DX002 (ip), vehicle: carboxymethylcellulose (CMC)) is 94 [4 of 6 alive], 97, 100, 108 % of control.
For the compound `CCN(CCc1ccc(N)cc1)C(Cc1ccccc1)c1cccc(OC)c1` (centres undefined), the survivor count is, setting by setting: (dose: 100.0 mg/kg/injection, schedule: Q04DX003 (ip), vehicle: saline) 5 of 6; under setting [6], 1 of 6; under setting [7], 0 of 6.
Consider `NNC(=O)CNc1ccccc1Br`, for which the survivor count under setting [8] is given as 0 of 3 and the survivor count under setting [9] is given as 0 of 3.
For the compound `CSC(N(C)C)=[N+](C)C`, the survivor count (dose: 240.0 mg/kg/injection, schedule: Q01DX Z (ip), vehicle: methylcellulose (MC)) is 1 of 6; the survivor count (dose: 240.0 mg/kg/injection, schedule: Q01DX Z (oral), vehicle: methylcellulose (MC)) is recorded as 1 of 6; the survivor count under setting [1] is listed as 0 of 6; the survivor count (dose: 480.0 mg/kg/injection, schedule: Q01DX Z (ip), vehicle: methylcellulose (MC)) is on record as 0 of 6; the survivor count (dose: 480.0 mg/kg/injection, schedule: Q01DX Z (oral), vehicle: methylcellulose (MC)) is 0 of 6.
Turning to `C#CC(=O)OCC`, the survivor count (dose: 100.0 mg/kg/injection, schedule: Q01DX001 (ip), vehicle: saline with Tween-80) is on record as 1 of 6.
For `N=C1SCc2ccccc21`, the survivor count is, setting by setting: (dose: 200.0 mg/kg/injection, schedule: Q01DX009 (ip), vehicle: Klucel (hydroxypropylcellulose) (HPC)) 3 of 6; under setting [2], 0 of 6.
As for `c1coc(CCc2nc3ccccc3[nH]2)c1`, for the setting “dose: 400.0 mg/kg/injection, schedule: Q04DX003 (ip), vehicle: Klucel (hydroxypropylcellulose) (HPC)”, the survivor count is listed as 2 of 6.
For `COc1ccc2c(=O)cc(-c3ccccc3)[nH]c2c1`, the survivor count (dose: 400.0 mg/kg/injection, schedule: Q01DX009 (ip), vehicle: other) is 5 of 6.
Turning to `O=C(NCc1ccccc1Cl)Nc1ccc(F)cc1`, the survivor count by setting is: (dose: 200.0 mg/kg/injection, schedule: Q01DX009 (ip), vehicle: carboxymethylcellulose (CMC)) 1 of 3; (dose: 400.0 mg/kg/injection, schedule: Q04DX002 (ip), vehicle: carboxymethylcellulose (CMC)) 4 of 6 and 3 of 3.
